Source: publication PMC6131142
No constants are given. Whether binding was seen depends on the method and setting. Binding calls can cover weak binding; strength is not graded here.

Sequences of proteins named here, by UniProt entry; tags and fusion partners are left off. A change or cut given only in a name is not applied to a line headed by its entry.
UniProt O23661: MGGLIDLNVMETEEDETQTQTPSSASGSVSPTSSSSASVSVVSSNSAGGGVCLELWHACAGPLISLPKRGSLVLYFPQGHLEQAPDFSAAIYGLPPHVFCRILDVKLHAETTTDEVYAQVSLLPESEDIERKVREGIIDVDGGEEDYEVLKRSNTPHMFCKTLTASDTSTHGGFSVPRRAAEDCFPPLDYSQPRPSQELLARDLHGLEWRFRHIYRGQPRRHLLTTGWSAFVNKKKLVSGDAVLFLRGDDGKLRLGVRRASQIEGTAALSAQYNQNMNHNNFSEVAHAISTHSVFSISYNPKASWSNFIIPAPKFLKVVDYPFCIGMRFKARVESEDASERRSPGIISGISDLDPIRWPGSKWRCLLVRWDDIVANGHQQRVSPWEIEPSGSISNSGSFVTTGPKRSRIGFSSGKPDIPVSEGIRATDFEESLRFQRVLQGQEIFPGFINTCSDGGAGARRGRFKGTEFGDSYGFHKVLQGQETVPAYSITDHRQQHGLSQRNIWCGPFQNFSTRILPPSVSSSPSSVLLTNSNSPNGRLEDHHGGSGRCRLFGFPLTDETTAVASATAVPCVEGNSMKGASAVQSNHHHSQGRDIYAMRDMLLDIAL

Target: T1, … (IND) transcription factor of Arabidopsis thaliana (Arabidopsis thaliana) (UniProt O81313)
T1 sequence: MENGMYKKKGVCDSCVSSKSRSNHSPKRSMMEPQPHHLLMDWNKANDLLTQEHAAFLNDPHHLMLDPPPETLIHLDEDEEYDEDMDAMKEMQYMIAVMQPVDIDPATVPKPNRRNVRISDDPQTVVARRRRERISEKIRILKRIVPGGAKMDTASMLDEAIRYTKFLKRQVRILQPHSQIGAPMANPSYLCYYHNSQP
Experiment: two-hybrid; GAL4 system (pGADT7 and pGBKT7), yeast AH109, co-transformation, 28 °C, growth on selective YSD medium -W-L-H-A with IAA in the medium (different concentrations; 100 μM IAA in the error-prone screen)

Row | Substance | binding
1 | ES_EP1 (ES domain variant from error-prone mutagenesis) (from UniProt O23661) (domain or fragment) | binds
2 | ES_EP2 (ES domain variant from error-prone mutagenesis) (from UniProt O23661) (domain or fragment) | binds
3 | ES_EP3 (ES domain variant from error-prone mutagenesis) (from UniProt O23661) (domain or fragment) | binds
4 | ES_SP (ES domain with serine to threonine mutations in the Ser patch) (from UniProt O23661) (domain or fragment) | binds
